Experimental data from PubChem BioAssay AID1665 (Sanford-Burnham Center for Chemical Genomics, 2009).
The other results are listed elsewhere or left out.

Assay: modulators of beta-catenin nuclear translocation, primary screen, imaging, HeLa cells, immunofluorescence, high-content (AID 1665)
Conditions: measured here: cell count, cytotoxicity flag, at 5 µM
Procedure, shortened: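 Technique: fluorescence imaging of beta-catenin antibody stain plus DAPI / Material: human HeLa cell line / Incubation: compound treatment 24 h, 37°C, 5% CO2 / Read-out basis: % activation of per-cell nuclear versus cytoplasmic median beta-catenin signal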
With `c1ccc(CN2CCC(Nc3ccccc3)CC2)cc1` the cell count was 1180 cells. `N#Cc1ccc(C(=O)NCC2(N3CCCCC3)CCCCC2)cc1` gave a cell count of 1220 cells. With `O=C(OC1CN2CCC1CC2)C1c2ccccc2C=Cc2ccccc21` (configuration not stated) the cell count was 550 cells. For `N/C(=N\O)c1c(N)no[n+]1[O-]`, the cell count was 977 cells. With `COc1ccc(C(=O)NCC2(N3CCOCC3)CCCCC2)cc1OC` the cell count was 1070 cells. Compound `CCCOc1ccc(C)cc1CN(CCCl)CCCl` has a cell count of 1160 cells. Compound `COc1cc(OC)cc(C(=O)NCC2(N3CCOCC3)CCCCC2)c1` has a cell count of 1150 cells. With `CCC(CO)(C(=O)OC1CN2CCC1CC2)c1ccccc1` (configuration not stated) the cell count was 1120 cells. `CC(C)(C)OC(=O)N1CCC(Nc2ccccc2)CC1` showed a cell count of 1130 cells. For `CCOc1ncccc1C(=O)NCC1(N2CCOCC2)CCCCC1`, the cell count was 1080 cells. With `CN(C)c1ccc(C(=O)NCC2(N3CCCCC3)CCCCC2)cc1` the cell count was 1090 cells. `CCN1CCC(Nc2cccc(F)c2)CC1` gave a cell count of 555 cells. With `Fc1ccccc1NC1CCN(Cc2ccccc2)CC1` the cell count was 1220 cells. In the case of `Cc1ccc(OCC(C)C)c(CN(CCCl)CCCl)c1`, the cell count is reported as 1100 cells. For `COc1ccc(NC2CCN(CCc3ccccc3)CC2)c(OC)c1`, the cell count was 963 cells. For `CCOc1ccc(C)cc1CN(CCCl)CCCl`, the cell count was 1130 cells. In the case of `N#CC1(Nc2ccccc2)CCN(Cc2ccccc2)CC1`, the cell count is reported as 1340 cells. In the case of `O=C(OC1CN2CCC1CC2)C1c2ccccc2Oc2ccccc21` (configuration not stated), the cell count is reported as 936 cells. With `O=C(NCC1(N2CCOCC2)CCCCC1)c1cc2ccccc2o1` the cell count was 1110 cells. `COc1ccc(C(=O)NCC2(N3CCCCC3)CCCCC2)c(OC)c1OC` showed a cell count of 1030 cells. For `CC(C)c1ccc(NC2CCN(C(=O)OC(C)(C)C)CC2)cc1`, the cell count was 1140 cells. For `CN(C)c1cccc(C(=O)NCC2(N3CCCCC3)CCCCC2)c1`, the cell count was 1100 cells. For `COc1ccc(CN(CCCl)CCCl)cc1Cl`, the cell count was 904 cells. For `CN1CCN(CCOC(=O)C(O)(c2ccccc2)c2ccccc2)CC1`, the cell count was 986 cells. For `COc1ccc(NC2CCN(C(=O)OC(C)(C)C)CC2)cc1`, the cell count was 1180 cells. Compound `N#CC1(Nc2ccccc2)CCN(CCc2ccccc2)CC1` has a cell count of 1350 cells. `O=C(NCC1(N2CCCCC2)CCCCC1)c1cccc([N+](=O)[O-])c1` gave a cell count of 1100 cells.
